Data as given in PubChem BioAssay AID1259424 (University of Nebraska Medical Center, 2018)

Screen: 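Rank knockdowns across the genome by resemblance to the KSR1 depletion profile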 (primary screen)
System: human HCT116 colon cancer cells
Knock-down reagent: siRNA pool against human genes, 50 nM
Measured: 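Six signature mRNAs by branched-DNA multiplex assay, scaled to two housekeeping genes and non-targeting median, log2; matched to mean KSR1 knockdown profile by Pearson correlation and euclidean distance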
Reading the numbers: mean correlation with KSR1 profile and KSR1 correlation: higher = expression change more like KSR1 knockdown; mean distance from KSR1 profile: higher = expression change less like KSR1 knockdown
The whole screen tested about 14,000 reagents; below is a random part of them. 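Higher correlation or smaller distance means closer resemblance to KSR1 loss; control wells, including KSR1 knockdowns, recur on many plates.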 Not stated in the record: the time to read-out.

gene	mean correlation with KSR1 profile	mean distance from KSR1 profile	KSR1 correlation, replicate 1	KSR1 correlation, replicate 2	KSR1 correlation, replicate 3
HOXA1 (homeobox A1)	0.439	3.14	0.536	0.57	0.334
AKNA (AT-hook transcription factor)	0.143	2.53	0.191	0.0116	0.0433
GLE1 (GLE1 RNA export mediator)	-0.63	1.91	-0.352	-0.865	-0.812
MTF1 (metal regulatory transcription factor 1)	-0.205	1.75	-0.23	-0.0733	0.00837
HEATR1 (HEAT repeat containing 1)	-0.877	3.16	-0.773	-0.801	-0.731
SEC23IP (SEC23 interacting protein)	-0.701	1.48	-0.119	-0.593	-0.696
DCAF10 (DDB1 and CUL4 associated factor 10)	0.202	2.36	0.252	0.24	0.229
CLDN10 (claudin 10)	-0.116	2.84	0.121	-0.149	-0.397
SAMD4A (sterile alpha motif domain containing 4A)	-0.828	1.46	-0.81	-0.926	-0.41
PRSS27 (serine protease 27)	0.893	0.885	0.32	0.815	0.877
DUSP22 (dual specificity phosphatase 22)	-0.168	2.8	-0.0676	-0.252	-0.377
PCOLCE (procollagen C-endopeptidase enhancer)	0.749	1.09	0.796	0.83	0.508
PFKL (phosphofructokinase, liver type)	0.366	2.38	0.43	0.34	0.338
MCCC1 (methylcrotonyl-CoA carboxylase subunit 1)	0.0495	1.44	0.169	-0.0974	-0.179
TSPO (translocator protein)	0.535	2.14	0.532	0.571	0.417
NOXA1 (NADPH oxidase activator 1)	0.0785	1.31	0.463	-0.232	-0.179
CAMTA2 (calmodulin binding transcription activator 2)	-0.00018	1.48	0.084	0.0169	-0.11
RPL37 (ribosomal protein L37)	-0.286	1.93	-0.324	-0.371	-0.0694
SHANK1 (SH3 and multiple ankyrin repeat domains 1)	-0.193	1.78	-0.121	-0.0895	-0.132
UPP1 (uridine phosphorylase 1)	-0.108	2.17	0.138	-0.463	-0.0175
ALOX12 (arachidonate 12-lipoxygenase, 12S type)	-0.0764	1.95	-0.0975	-0.117	-0.208
NIF3L1 (NGG1 interacting factor 3 like 1)	-0.547	3.13	-0.651	-0.564	-0.422
HTR1F (5-hydroxytryptamine receptor 1F)	0.297	1.62	0.0954	0.403	0.503
KRTAP3-1 (keratin associated protein 3-1)	0.666	2.61	0.455	0.567	0.753
CCIN (calicin)	-0.0316	3.73	-0.00728	-0.178	-0.0816
ERCC6L2 (ERCC excision repair 6 like 2)	-0.469	1.72	-0.632	-0.309	-0.0293
CENPK (centromere protein K)	-0.431	2.68	-0.348	-0.463	-0.363
RCCD1 (RCC1 domain containing 1)	0.512	2.07	0.285	0.374	0.675
DLG1 (discs large MAGUK scaffold protein 1)	0.0619	2.37	0.207	-0.0662	-0.228
ALAS2 (5'-aminolevulinate synthase 2)	0.184	2.58	0.486	0.455	-0.322
CCNE2 (cyclin E2)	0.0128	1.03	-0.0075	0.149	-0.295
DHX35 (DEAH-box helicase 35)	0.219	4.76	-0.0406	0.323	0.339
GPM6A (glycoprotein M6A)	-0.623	2.2	-0.691	-0.701	-0.551
REG1A (regenerating family member 1 alpha)	0.395	1.25	0.454	0.291	0.549
DACH1 (dachshund family transcription factor 1)	0.362	1.85	0.377	0.209	0.494
ZNF318 (zinc finger protein 318)	0.278	2.33	0.483	0.0447	0.11
SNURF (SNRPN upstream open reading frame)	-0.416	2.62	-0.437	-0.43	-0.256
HNRNPF (heterogeneous nuclear ribonucleoprotein F)	-0.101	2.47	-0.0336	-0.248	-0.0211
IRAG2 (inositol 1,4,5-triphosphate receptor associated 2)	-0.357	2.48	-0.502	-0.483	-0.564
STAP2 (signal transducing adaptor family member 2)	0.472	2.05	0.401	0.468	0.365
CS (citrate synthase)	-0.424	1.8	-0.487	-0.0535	-0.58
RBP4 (retinol binding protein 4)	0.0813	2.04	0.235	0.0132	0.206
RBMX (RNA binding motif protein X-linked)	-0.47	2.53	-0.581	-0.503	-0.548
ZFYVE1 (zinc finger FYVE-type containing 1)	-0.421	1.29	-0.133	-0.414	-0.137
ZNF490 (zinc finger protein 490)	0.168	1.29	-0.434	0.534	0.176
NLRX1 (NLR family member X1)	0.355	2.16	0.4	0.681	-0.0298
LFNG (LFNG O-fucosylpeptide 3-beta-N-acetylglucosaminyltransferase)	-0.329	2.88	-0.259	-0.5	-0.368
GNAT2 (G protein subunit alpha transducin 2)	0.661	1.55	0.727	0.644	0.47
GAD2 (glutamate decarboxylase 2)	-0.335	3.15	-0.193	-0.523	-0.438
TSKU (tsukushi, small leucine rich proteoglycan)	0.181	2.25	0.202	0.0735	0.113
